Results as given in PubChem BioAssay AID1487 (National Center for Advancing Translational Sciences (NCATS), 2009).
The other results are listed elsewhere or left out. Further columns of the screen follow, without active or inactive calls. The list favours compounds with an active or inconclusive main result. Words in brackets tell the shape of the fitted curve; partial curves, single points and poor fits give uncertain potencies.

Experiment: qHTS Assay for Modulators of Lamin A Splicing
Details: HeLa LMNA splicing GFP/RFP minigene ratio, 48 h
Method in brief: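 S3 HeLa cells stably expressing lamin A-EGFP splicing minigene plus DsRed2, 600 cells/well, 48 h compound exposure at 37C. Laser-scanning cytometry; analysed as GFP (500-530 nm)/RFP (575-640 nm) total intensity ratio; 0.5% DMSO vehicle.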

[1] = measured here: GFP splicing reporter channel
[2] = measured here: RFP viability control channel

| Structure (SMILES) | AC50 [1] | AC50 [2] |
| --- | --- | --- |
| CSc1ccccc1NC(=O)CN(Cc1ccc(Cl)cc1)S(C)(=O)=O | 14.1 µM [rising, single point] | 35.5 µM [rising, single point] |
| N#C/C(=C\c1cccs1)Sc1nc2ccccc2s1 | – | 25.1 µM [rising, partial curve] |
| CCc1ccc(/C=N/NC(=S)NCCc2ccccc2)cc1 | – | 0.708 µM [falling, full curve, poor fit] |
| Cc1ccccc1Oc1nc2ccccn2c(=O)c1/C=C(\C#N)C(=O)Nc1c(C)n(C)n(-c2ccccc2)c1=O | – | 0.447 µM [rising, full curve] |
| COc1ccc(-c2noc(C3CCCN(S(=O)(=O)c4cccc(Cl)c4C)C3)n2)cc1OC (centres undefined) | 11.2 µM [rising, partial curve, poor fit] | 17.8 µM [rising, partial curve] |
| COc1cc(NS(=O)(=O)c2ccc3c(c2)CC(C)N3C(=O)C2CCC2)cc(OC)c1OC (centres undefined) | 0.0398 µM [falling, full curve, poor fit] | 0.0562 µM [falling, partial curve] |
| Cc1ccc(CN2C3CCCC2CC(NC(=O)c2ccc(C)cc2)C3)cc1 (centres undefined) | 6.31 µM [falling, partial curve, poor fit] | – |
| N=C(N)c1ccc(O)cc1 | 17.8 µM [falling, single point] | 22.4 µM [falling, partial curve, poor fit] |
| CCOC(=O)N1CCN(CCC(=O)c2ccc(Cl)cc2)CC1 | 35.5 µM [falling, single point] | – |
| CCOc1ncccc1C(=O)Nc1nc(C(C)(C)C)cs1 | 2.51 µM [falling, full curve, poor fit] | – |
| COc1ccc(/C=N/OCC(=O)Nc2ccc3c(c2)OCO3)c(OC)c1 | – | 11.2 µM [rising, partial curve] |
| CCS(=O)(=O)N1CCN(c2ccc(Cl)cc2[N+](=O)[O-])CC1 | – | 17.8 µM [rising, partial curve] |
| Cn1cc(C(=O)O)c(=O)c2cc(S(=O)(=O)N3CCOCC3)ccc21 | 0.00282 µM [falling, full curve, poor fit] | 0.708 µM [falling, full curve, poor fit] |
| CNC(=O)CC1C(=O)N(c2ccc(Cl)cc2)C(=S)N1CCc1ccc(OC)c(OC)c1 (centres undefined) | 31.6 µM [falling, single point] | 35.5 µM [falling, single point] |
| CCOC(=O)c1cnc2c(cnn2C)c1Cl | 5.62 µM [rising, single point] | – |
| COc1ccc(C2=C(C=C(C#N)C#N)C(c3ccccc3C)c3ccccc3O2)cc1OC (centres undefined) | 12.6 µM [rising, single point] | 14.1 µM [rising, partial curve] |
| O=C(CNS(=O)(=O)c1ccc(F)cc1)Nc1ccc(C(F)(F)F)cc1 | – | 35.5 µM [rising, single point] |
| Cc1ccc(C)c(NC(=O)c2cnc3sc(N4CCOCC4)nn3c2=O)c1 | – | 0.0141 µM [falling, single point] |

| Structure (SMILES) | AC50 [1] | AC50 [2] |
| --- | --- | --- |
| COc1ccc(S(=O)(=O)N(CCC#N)Cc2ccco2)cc1OC | – | 35.5 µM [falling, single point] |
| Cc1ccc(S(=O)(=O)N(C(=O)c2ccncc2)c2ccc(OC(=O)c3ccncc3)c3ccccc23)cc1 | 14.1 µM [rising, single point] | 31.6 µM [rising, single point] |
| COc1ccccc1-c1c(C(F)(F)F)oc2cc(OC(=O)c3ccc([N+](=O)[O-])cc3)ccc2c1=O | 5.62 µM [rising, single point] | 35.5 µM [falling, single point] |
| COc1ccc(-c2nc3cc(NC(=O)COc4ccc(C)c(C)c4)ccc3o2)cc1 | – | 0.0891 µM [falling, full curve, poor fit] |
| CCOc1cc(C(=O)OCC(=O)Nc2cc(C)on2)ccc1OCC(C)C | 35.5 µM [rising, partial curve, poor fit] | – |
| CC(NC(=O)c1noc2c1CCCCC2)c1ccccc1 (centres undefined) | 11.2 µM [rising, single point] | 11.2 µM [rising, partial curve] |
| CCCNc1ncnc2c1c(-c1ccccc1)cn2-c1ccccc1 | 35.5 µM [falling, single point] | – |
| Cc1ccc(-n2nnnc2CCl)cc1 | – | 17.8 µM [falling, partial curve] |
| N#Cc1ccccc1NC(=S)Nc1ccc(F)cc1 | – | 22.4 µM [falling, partial curve, poor fit] |
| O=C(CN(Cc1ccc(Cl)c(Cl)c1)S(=O)(=O)c1ccccc1)N/N=C\c1ccc2c(c1)OCO2 | 7.94 µM [rising, partial curve, poor fit] | 15.8 µM [rising, partial curve] |
| COCCn1c(C)cc(O)c(C(c2ccccc2Cl)N2CCCCC2)c1=O (centres undefined) | 6.31 µM [falling, single point] | 3.98 µM [falling, single point] |
| Cc1cc(O)cc(O)c1-c1onc(C(F)(F)F)c1-c1cscn1 | 4.47 µM [rising, full curve, poor fit] | 10 µM [rising, partial curve] |
| O=C(Cc1coc2ccc3ccccc3c12)N1CCN(c2ncccn2)CC1 | – | 20 µM [rising, single point] |
| COCCNC(=S)N(Cc1cccs1)Cc1cc2cccc(C)c2[nH]c1=O | 0.02 µM [falling, full curve, poor fit] | 0.316 µM [falling, full curve] |
| S=C(Nc1ccc2cn[nH]c2c1)Nc1ccccc1Cl | 14.1 µM [rising, single point] | – |
| Cc1ccc(OCC(=O)NNC(=S)NCc2ccccc2)cc1 | 15.8 µM [rising, single point] | – |
| O=C1NC(=S)S/C1=C\c1ccc(SCc2ccccc2)o1 | – | 11.2 µM [rising, partial curve] |

Part of the list above, as labelled records:
Cc1ccc(S(=O)(=O)N(C(=O)c2ccncc2)c2ccc(OC(=O)c3ccncc3)c3ccccc23)cc1
  AC50 [1]: 14.1 µM [rising, single point]; AC50 [2]: 31.6 µM [rising, single point]
COCCn1c(C)cc(O)c(C(c2ccccc2Cl)N2CCCCC2)c1=O (centres undefined)
  AC50 [1]: 6.31 µM [falling, single point]; AC50 [2]: 3.98 µM [falling, single point]
